Laboratory results as given in publication PMC9366597 (RSC Advances, 2022).

Experiment: PAMPA-BBB permeation assay

## COc1cc2c(cc1OC)C(=O)C(CC1CCN(Cc3ccccc3)CC1)C2 (centres unmarked) [Donepezil, reference compound]
Class from Pe
  Prediction (PAMPA-BBB) (CNS+, CNS−): CNS+ (‘CNS+’ (prediction of high BBB permeation); Pe (10^−6 cm s^−1) > 4.39)
pH 7.4, 20 hours, room temperature
  Permeability (PAMPA-BBB) Pe(tested): 6.55 ± 0.10 10^−6 cm s^−1
